# Publication PMC4431351
# Chains of the proteins cited; added tags and fusions are not shown. Lines headed by an entry give the natural chain unless they say otherwise; changes in a name come on top.
# UniProt P15941: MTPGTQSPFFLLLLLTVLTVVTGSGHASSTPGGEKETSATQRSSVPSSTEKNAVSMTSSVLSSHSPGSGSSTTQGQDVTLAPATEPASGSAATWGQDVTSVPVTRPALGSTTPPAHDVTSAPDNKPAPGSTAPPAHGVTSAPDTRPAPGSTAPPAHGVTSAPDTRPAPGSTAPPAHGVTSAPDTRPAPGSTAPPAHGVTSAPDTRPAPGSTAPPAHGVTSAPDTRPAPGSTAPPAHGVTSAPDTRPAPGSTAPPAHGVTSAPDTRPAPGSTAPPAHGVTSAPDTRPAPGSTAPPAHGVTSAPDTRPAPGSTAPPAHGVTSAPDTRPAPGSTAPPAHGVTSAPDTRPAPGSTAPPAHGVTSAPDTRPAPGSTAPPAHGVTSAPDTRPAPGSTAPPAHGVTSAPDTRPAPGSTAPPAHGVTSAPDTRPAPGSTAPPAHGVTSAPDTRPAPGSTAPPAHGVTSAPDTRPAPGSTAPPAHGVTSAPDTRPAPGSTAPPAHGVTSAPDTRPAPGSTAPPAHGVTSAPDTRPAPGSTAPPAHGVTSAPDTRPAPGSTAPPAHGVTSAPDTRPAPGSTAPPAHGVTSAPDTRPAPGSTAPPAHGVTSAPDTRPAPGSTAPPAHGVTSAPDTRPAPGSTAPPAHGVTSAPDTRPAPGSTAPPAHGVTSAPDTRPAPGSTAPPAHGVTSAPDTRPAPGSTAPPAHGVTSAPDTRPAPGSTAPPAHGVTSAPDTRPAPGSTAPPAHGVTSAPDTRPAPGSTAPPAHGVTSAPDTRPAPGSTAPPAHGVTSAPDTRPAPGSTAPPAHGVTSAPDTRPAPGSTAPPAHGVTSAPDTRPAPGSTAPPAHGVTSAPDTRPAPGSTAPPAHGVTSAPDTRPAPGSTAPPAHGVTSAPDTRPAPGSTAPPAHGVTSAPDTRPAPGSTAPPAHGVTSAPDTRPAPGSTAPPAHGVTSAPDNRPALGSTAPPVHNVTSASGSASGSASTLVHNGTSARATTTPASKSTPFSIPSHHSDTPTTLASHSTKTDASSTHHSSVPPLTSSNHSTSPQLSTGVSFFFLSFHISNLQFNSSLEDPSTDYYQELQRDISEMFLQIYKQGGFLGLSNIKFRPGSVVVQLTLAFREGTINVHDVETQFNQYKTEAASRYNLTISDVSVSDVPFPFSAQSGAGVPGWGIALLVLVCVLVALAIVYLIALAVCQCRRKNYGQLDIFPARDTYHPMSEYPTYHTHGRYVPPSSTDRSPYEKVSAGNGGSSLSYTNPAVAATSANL
# Target: MUC1 (native, on MCF-7 cell membrane) (human (MCF-7 cells)) (UniProt P15941)
# Test: cell binding, LDI-MS of Au cluster ions
# Conditions: multivalent Au NP/GO conjugate on MCF-7 cells; 5'-thiol; Probe assembled in 5 mM sodium phosphate pH 7.4, then PBS (10 mM sodium phosphate, 140 mM NaCl, 2.70 mM KCl, pH 7.6), room temperature; protein on the cell surface; single-stranded DNA
sequence,measurement,value
TTTTTTTTTTTTTTTGCAGTTGATCCTTTGGATACCCTGG [5'-thiol-T15-AptMUC1 on Au NPs/GO],binding result,binds

# Construct, isoform or probe ends are uncertain for at least one entry. Results from cells or extracts need not show a direct contact.
